Results are given in words; binding and its absence hold for the method and conditions named. In cells and extracts the contact can be indirect. Binding calls can cover weak binding; strength is not graded here.
Key:
[1] = target: T1, RIP3 (rat (endogenous in brain tissue)) (UniProt Q9Z2P5); assay: co-IP; endogenous proteins in lysates of rat brain tissue 6 h after CCI (weak RIPA lysis buffer, pre-cleared with protein A/G agarose); 500 ul extract with 2 ug primary antibody (RIP3 or MLKL precipitated) overnight at 4°C, protein A/G agarose 4 h at 4°C, immunoblot; also in rats given AAV-shA20 or AAV-shCtrl, Nec-1 or melatonin
T1 sequence: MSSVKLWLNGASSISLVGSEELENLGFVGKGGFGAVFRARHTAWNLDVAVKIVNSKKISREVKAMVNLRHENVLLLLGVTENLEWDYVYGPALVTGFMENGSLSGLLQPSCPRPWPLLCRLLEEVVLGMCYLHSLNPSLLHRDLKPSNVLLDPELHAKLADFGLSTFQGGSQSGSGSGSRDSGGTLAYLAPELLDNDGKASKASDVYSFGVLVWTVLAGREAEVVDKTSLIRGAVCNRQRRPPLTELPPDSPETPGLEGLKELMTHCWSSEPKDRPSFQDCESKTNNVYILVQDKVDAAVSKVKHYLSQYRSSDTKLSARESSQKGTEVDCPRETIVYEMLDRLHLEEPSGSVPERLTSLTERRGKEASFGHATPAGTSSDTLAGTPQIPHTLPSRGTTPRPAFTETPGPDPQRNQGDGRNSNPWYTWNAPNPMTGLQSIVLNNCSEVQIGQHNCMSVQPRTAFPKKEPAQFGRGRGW

[2] = target: T2, mixed lineage kinase domain-like protein (rat (endogenous in brain tissue)) (UniProt D3ZKP6); assay: as above
T2 sequence: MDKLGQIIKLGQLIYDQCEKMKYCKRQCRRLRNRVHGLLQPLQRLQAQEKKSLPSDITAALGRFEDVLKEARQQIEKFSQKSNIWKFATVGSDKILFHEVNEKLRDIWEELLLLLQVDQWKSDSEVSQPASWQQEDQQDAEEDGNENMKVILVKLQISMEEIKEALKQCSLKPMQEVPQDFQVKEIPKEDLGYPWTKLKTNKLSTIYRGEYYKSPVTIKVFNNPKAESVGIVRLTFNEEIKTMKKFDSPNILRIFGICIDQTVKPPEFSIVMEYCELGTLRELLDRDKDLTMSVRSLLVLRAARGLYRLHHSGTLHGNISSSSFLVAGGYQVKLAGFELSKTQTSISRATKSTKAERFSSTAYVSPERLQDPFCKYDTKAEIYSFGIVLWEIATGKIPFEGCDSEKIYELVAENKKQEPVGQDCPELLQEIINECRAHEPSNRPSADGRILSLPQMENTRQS

binding [1]: binds | binding [2]: binds
Substance: receptor-interacting protein 1 (rat (endogenous in brain tissue))

— paper PMC6761256
